# PubChem BioAssay AID652259 | Drosophila RNAi Screening Center | 2013
# Test: 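Genome-wide hunt for genes that control Wingless pathway activity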 (primary screen)
# Cells: Drosophila clone 8 imaginal disc epithelial cells
# Knock-down reagent: long dsRNA against Drosophila genes
# Treatment: pathway stimulated by co-transfected Wingless expression plasmid
# Measured: 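Dual luciferase reads per well after Wingless plasmid stimulation: reporter firefly light and Renilla control light; activity is firefly divided by Renilla, a ratio not deposited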
# Scale: firefly reporter light: higher = more Wg reporter light, before normalisation; Renilla control light: higher = more transfected or surviving cells
# Rule for the call: 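a knock-down is a candidate when at least two out of four statistical tests show it departing from its plate mean; one test alone signals a weak candidate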
# Meaning of the calls: active = candidate regulator (raises or lowers reporter); inactive = not a candidate
# The deposit covers about 22,000 reagents; shown is an unselected part of those with a known target gene and a result. Of all reagents, 233 (1.1%) got an active call. 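Light values are raw, unnormalised plate reads; the ratio scores behind the reporter calls were not deposited.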 Unmarked entries are inactive. Names joined by + are all predicted targets of the reagent. The record does not give: the amount of reagent, the time to read-out, the dose of the treatment.
The opening 8 records as a preview:
predicted target,PubChem SID,"reporter change call, replicate 1","firefly reporter light, replicate 1","firefly reporter light, replicate 2","Renilla control light, replicate 1","Renilla control light, replicate 2"
CG1441,SID104186240,,15665,,2229,
Or67d (Odorant receptor 67d),SID104189950,,5884,,2736,
CG8545,SID104187002,,9563,,1848,
Skp2 + CG1103,SID104191952,,7794,,4290,
Skp2 + CG1103,SID104201847,,4.84e5,4.95e5,1.56e5,1.63e5
Chi (Chip),SID104184394,,7434,,3000,
ana (anachronism),SID104187371,,15036,,3877,
Irbp (Inverted repeat-binding protein),SID104196799,,13911,,3744,

Main list, from the start:
predicted target,PubChem SID,"reporter change call, replicate 1","firefly reporter light, replicate 1","firefly reporter light, replicate 2","Renilla control light, replicate 1","Renilla control light, replicate 2"
CG1441,SID104186240,,15665,,2229,
Or67d (Odorant receptor 67d),SID104189950,,5884,,2736,
CG8545,SID104187002,,9563,,1848,
Skp2 + CG1103,SID104191952,,7794,,4290,
Skp2 + CG1103,SID104201847,,4.84e5,4.95e5,1.56e5,1.63e5
Chi (Chip),SID104184394,,7434,,3000,
ana (anachronism),SID104187371,,15036,,3877,
Irbp (Inverted repeat-binding protein),SID104196799,,13911,,3744,
CG3829,SID104184215,,14500,,5274,
Corp (Companion of reaper),SID104197563,,1660,3637,604,1280
CG6184,SID104195778,,12570,,2808,
Frq1 (Frequenin 1),SID104199753,,22280,,9748,
Clk (Clock),SID104190909,,1927,12017,935,2439
ari-1 (ariadne 1),SID104200100,,25243,,14316,
ari-1 (ariadne 1),SID104201307,,6.45e5,6.81e5,3.80e5,2.66e5
CG16852,SID104181668,,2112,7568,1148,2642
san (separation anxiety),SID104187487,,8400,,3152,
Mcr (Macroglobulin complement-related),SID104183158,,9040,,3783,
Dok (Downstream of kinase),SID104197996,,34924,,6585,
CG34033,SID104184982,,20433,,9847,
CG33093,SID104195567,,2979,,1144,
Blos1,SID104185762,,3680,,1632,
CG31055,SID104193624,,4123,,1914,
ced-6,SID104187383,,3456,13940,964,4371
ref(2)P (refractory to sigma P),SID104183393,,1557,6195,652,2565
CG43896,SID104190080,,6326,,3244,
CG43896,SID104190546,,5873,,2850,
Cpr65Ec (Cuticular protein 65Ec),SID104190817,,1770,7941,1549,2548
CG12782,SID104183919,,2694,7556,586,3386
Mal-A8 (Maltase A8),SID104187026,,2761,6437,819,2935
CG10184,SID104193996,,2903,6451,1414,1328
CG31952,SID104180220,,4229,8864,1424,4161
CG31952,SID104201593,,5.28e5,5.52e5,1.57e5,1.73e5
CG13884,SID104188146,Wg reporter activity lowered,3469,,3174,
Tpst (Tyrosylprotein sulfotransferase),SID104198781,,3874,,563,
Tpst (Tyrosylprotein sulfotransferase),SID104199488,,31728,,17865,
Tpst (Tyrosylprotein sulfotransferase),SID104199515,,27440,,13899,
Tpst (Tyrosylprotein sulfotransferase),SID104199516,,24289,,4386,
Tpst (Tyrosylprotein sulfotransferase),SID104202034,,5.57e5,5.66e5,86858,572
CG30043,SID104186077,,5465,,2183,
BaraB (Baramicin B),SID104186212,,4822,12121,1196,4069
lambdaTry,SID104185929,,7892,,3610,
CG15554,SID104194884,,5702,,2838,
CG13108,SID104181998,,2565,4589,1083,2130
Grl65a (Gustatory receptor-like 65a),SID104188629,,2421,,1698,
Neurochondrin,SID104192372,,7744,,2572,
Mgat4a,SID104189118,,3501,7.47e5,2288,3.51e5
Mgat4a,SID104190862,,6147,,3209,
CG7724,SID104190697,,3932,,1736,
mew (multiple edematous wings),SID104198763,,3819,,450,
mew (multiple edematous wings),SID104200144,,22507,,9120,
CG31789,SID104181437,,15131,,6135,
Eig71Ee (Ecdysone-induced gene 71Ee),SID104190944,,10560,,6345,
cn (cinnabar),SID104187386,,2570,7427,1139,2874
l(3)05822 (lethal (3) 05822),SID104195994,,4232,7533,1324,2505
RpL6 (Ribosomal protein L6),SID104194115,,29456,,19826,
RpL6 (Ribosomal protein L6),SID104201863,,7.13e5,6.67e5,1.28e5,85916
CG13054,SID104189727,,5712,,3584,
yellow-f,SID104195140,,13292,,2512,
Dop1R2 (Dopamine 1-like receptor 2),SID104193750,,4659,,1947,
Dop1R2 (Dopamine 1-like receptor 2),SID104195171,,5792,,2251,
CG31265,SID104195537,,11253,,2608,
CG14414,SID104199391,,25671,,10128,
kl-2 (male fertility factor kl2),SID104200928,,12363,,6676,
nullo,SID104198599,,19363,,10999,
CG31142,SID104193439,,3245,,1429,
gzl (godzilla E3 ubiquitin protein ligase),SID104192309,,5331,,2928,
OdsH (Ods-site homeobox),SID104200055,,27014,,12745,
CG13376,SID104197693,,31809,,18164,
Syn (Synapsin),SID104196668,,19209,,4006,
CG14200,SID104199347,,17410,,151,
CG3149,SID104197524,,2201,6427,1072,2153
ry (rosy),SID104196840,,4661,,1957,
stg (string),SID104196863,Wg reporter activity lowered (active),1306,882,1194,295
CG32454,SID104191444,,6041,,2355,
CG6785,SID104182785,,6864,,1568,
CG42544,SID104192243,,3036,,1033,
CG31100,SID104194245,,13089,,3606,
CG31100,SID104194247,,16753,,4185,
CatB (Catalase B),SID104182986,,7940,,2553,
CG11590,SID104199203,,17675,,7905,
CG13720,SID104188121,,912,4515,523,1216
CG32751,SID104201436,,4.07e5,4.18e5,2.01e5,1.36e5
f-cup (flyers-cup),SID104193931,,11270,,2902,
CG4408,SID104195366,,2064,4667,1060,1704
daed (daedalus),SID104180091,,10144,,3133,
Rpp25 (Ribonuclease P/MRP subunit p25),SID104184794,,2676,8149,681,3236
Ir75a (Ionotropic receptor 75a),SID104189980,,7203,,2724,
ZnT77C (Zinc transporter 77C),SID104191558,,14117,,5041,
ZnT77C (Zinc transporter 77C),SID104191559,,14023,,5123,
CG10081,SID104185754,,4262,,2284,
CG4133,SID104180431,Wg reporter activity raised (active),7360,7072,1146,1184
Mco4 (Multicopper oxidase 4),SID104199853,,16455,,6829,
